Assay results published in US20070020688A1, “Measurement method using biosensor” (FUJI PHOTO FILM CO., LTD., priority 2005, published 2007).

Assay: Immobilized amount of trypsin on hydrogel-coated measurement chip by surface plasmon resonance

For Trypsin, the “Protein immobilized amount (RU)” value (Experiment No. 1: phosphate buffer (pH 7.4), 10 mg/ml, 1 hr, washing phosphate buffer (pH 7.4)) was 4150 RU, the “Protein immobilized amount (RU)” value (Experiment No. 2: phosphate buffer (pH 7.4), 2 mg/ml, 1 hr, washing phosphate buffer (pH 7.4)) was 2580 RU and the “Protein immobilized amount (RU)” value (Experiment No. 3: phosphate buffer (pH 7.4), 2 mg/ml, 1 hr, washing 10 mM NaOH) was 2310 RU. The “Protein immobilized amount (RU)” value (Experiment No. 4: acetate buffer (pH 5.0), 0.1 mg/ml, 0.2 hr, washing phosphate buffer (pH 7.4)) was 5200 RU.
